Positions count from the first letter of the chain named. For part of these data: A weaker result is weaker than the reference pair of the same experiment. Tags and fusion partners may be left off the protein sequences shown. For part of these data: Where cells or extracts were used, other partners may take part. For part of these data: Construct, isoform or probe ends are uncertain for at least one entry.
Key:
[1] = biological target: T1, PUM1 PUF CR (repeat 6 Cys12/Arg16) (Homo sapiens) (UniProt Q14671); assay: EMSA; conditions: striking specificity shift stated; purified recombinant protein; label: 5'-fluorescein
T1 sequence: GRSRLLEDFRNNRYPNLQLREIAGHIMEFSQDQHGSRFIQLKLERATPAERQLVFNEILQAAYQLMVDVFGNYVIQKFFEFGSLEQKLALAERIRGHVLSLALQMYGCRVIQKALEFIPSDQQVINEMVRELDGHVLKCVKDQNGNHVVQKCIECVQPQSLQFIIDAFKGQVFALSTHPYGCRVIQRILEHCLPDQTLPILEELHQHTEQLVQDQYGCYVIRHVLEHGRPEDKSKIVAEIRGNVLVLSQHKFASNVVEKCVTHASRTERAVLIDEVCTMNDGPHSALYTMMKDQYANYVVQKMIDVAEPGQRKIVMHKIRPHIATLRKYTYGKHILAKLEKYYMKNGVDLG

[2] = biological target: T2, PUM1 PUF GR (repeat 6 Gly12/Arg16) (Homo sapiens) (UniProt Q14671); assay: EMSA; conditions: striking specificity shift stated; purified recombinant protein; label: 5'-fluorescein
T2 sequence: T1 sequence with C218G

[3] = biological target: T3, PUM1 PUF domain wild type (NQ) (Homo sapiens) (UniProt Q14671); assay: EMSA; conditions: 10 mM HEPES pH 8.0, 50 mM KCl, 1 mM EDTA, RT; purified recombinant protein; label: 5'-fluorescein
T3 sequence: T1 sequence with C218N, R222Q

[4] = biological target: T4, PUM1 PUF GR repeat 8 (Homo sapiens) (UniProt Q14671); assay: one hybrid; conditions: yeast three-hybrid; higher affinity than wild-type NRE; protein in cells; protein details: Gal4 activation domain fusion; variant of NRE
T4 sequence: T1 sequence with C218N, R222Q, N297G, Q301R

[5] = biological target: T5, PUM1 PUF GR repeat 7 (Homo sapiens) (UniProt Q14671); assay: one hybrid; conditions: yeast three-hybrid; higher affinity than wild-type NRE; protein in cells; protein details: Gal4 activation domain fusion; variant of NRE
T5 sequence: T1 sequence with C218N, R222Q, S254G, E258R

[6] = biological target: T6, PUM1 PUF GR repeat 5 (Homo sapiens) (UniProt Q14671); assay: one hybrid; conditions: yeast three-hybrid; higher affinity than wild-type NRE; protein in cells; protein details: Gal4 activation domain fusion; variant of NRE
T6 sequence: T1 sequence with C182G, Q186R, C218N, R222Q

AUUGUAUAUA [NRE (Fl)]
binding result [1]: binds more weakly
binding result [2]: binds more weakly
binding result [3]: binds

CCGGCUAGCAAUCGUAUAUAUUAAUUUAAUAAAGCAUG [NREU1C]
binding result [4]: binds

CCGGCUAGCAAUUCUAUAUAUUAAUUUAAUAAAGCAUG [NREG2C]
binding result [5]: binds

CCGGCUAGCAAUUGUCUAUAUUAAUUUAAUAAAGCAUG [NREA4C]
binding result [6]: binds

Reference: US20130323813, “PEPTIDES FOR THE SPECIFIC BINDING OF RNA TARGETS” (THE UNIVERSITY OF WESTERN AUSTRALIA, published 2013)
